Source: PubChem BioAssay AID2685 (National Center for Advancing Translational Sciences (NCATS), 2010)
The list shows a part of the results. The main result of the screen is listed elsewhere. These columns were measured beside it and carry no call. The list favours compounds with an active or inconclusive main result. Words in brackets tell the shape of the fitted curve; partial curves, single points and poor fits give uncertain potencies.

Test: qHTS Assay for Lipid Storage Modulators in Drosophila S3 Cells;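 as to cell number change: cells counted by Cell Tracker Red CMTPX staining in the red channel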
Details: BODIPY lipid droplet fluorescence, 18-24 h; for cell number change: measured here: cell count max response, cells fed with added oleic acid
In short: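 Drosophila S3 cells got compounds at several concentrations plus oleic acid (400 uM solution). Laser-scanning cytometry with 488 nm excitation read lipid droplets at 500-530 nm and cells at 575-640 nm. Percent activity was relative to 20 uM Triacsin C.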

[1] = measured here: cell number channel AC50, cells fed with added oleic acid
[2] = measured here: lipid fluorescence (Fed channel) AC50, cells fed with added oleic acid

| SMILES | cell number change [%] | AC50 [1] | AC50 [2] |
| --- | --- | --- | --- |
| CCOC(=O)Cn1nc(C)c2c1CCCC2=O | -16.6 |  |  |
| Cc1sc2c(c1C)c(=O)nc1scc(CC(=O)O)n12 | 28.6 |  |  |
| O=C(NNC(=O)c1ccc(Cl)cc1Cl)Nc1ccccc1 | -14.1 | 3.66 µM [falling, single point] |  |
| CC(=O)NCCNC(=O)[C@H](Cc1ccccc1)NC(=O)c1cccs1 | 13.2 |  |  |
| Cc1cc(NC(=S)Nc2ccccc2)ccc1Br | -36.4 | 0.206 µM [falling, full curve] | 0.0058 µM [falling, full curve, poor fit] |
| O=C(NNC(=S)Nc1ccccc1Cl)c1ccccc1Cl | 0.54 |  |  |
| COc1ccc(Cl)cc1Nc1nc(-c2sc(NC(=O)c3ccco3)nc2C)cs1 | -67.8 | 18.4 µM [falling, partial curve] | 8.2 µM [falling, partial curve] |
| O=C(OC(C(=O)NCc1cccs1)c1ccccc1Cl)c1ccco1 (stereo unspecified) | -25.2 |  |  |
| O=C1OCCN1S(=O)(=O)Nc1ccccc1 | 3.6 | 0.731 µM [rising, single point] |  |
| N#CCCn1cc(CNCc2ccccc2)c(-c2cccc([N+](=O)[O-])c2)n1 | 13.4 | 6.51 µM [rising, single point] |  |
| CC(=O)c1c(N2CCOCC2)nc(=S)n(-c2ccccc2)c1C | -0.551 |  |  |
| O=C(Nc1nc2c(Cl)c(Cl)ccc2s1)C1CC1 | -15.9 |  |  |
| O=C(CCNS(=O)(=O)c1ccc(Br)cc1)N1CCN(c2ccccc2O)CC1 | 21.1 |  | 9.2 µM [rising, partial curve] |
| COc1ccc(C2C(C(=O)c3cccs3)=C(O)C(=O)N2c2nnc(C)s2)cc1OC (stereo unspecified) | 128 |  |  |
| Nc1ccc(S(=O)(=O)NC2(C(F)(F)F)NC(=O)N(c3ccccc3F)C2=O)cc1 (stereo unspecified) | 1.28 | 1.64 µM [rising, partial curve, poor fit] |  |
| Cc1ccccc1CNC(=O)C1CCN(c2nnc(N3CCCC3=O)s2)CC1 | 11.2 |  | 0.00461 µM [rising, full curve, poor fit] |
| COc1ccc(C(=O)N2CCOC2CNC(=O)C(=O)NCc2ccc(Cl)cc2)cc1 (stereo unspecified) | 2.96 |  |  |
| Cc1cccc(-n2c(O)c(C=NC3CCS(=O)(=O)C3)c3ccccc3c2=O)c1C (stereo unspecified) | 25.8 |  | 16.4 µM [rising, single point] |
| O=C(CCS(=O)(=O)c1cccc2nonc12)NC1CCCCCC1 | 13.4 |  | 4.61 µM [rising, partial curve] |
| COc1ccc(CCNC(=O)c2cccc(S(=O)(=O)NC(C)c3ccccc3)c2)cc1 (stereo unspecified) | 3.01 | 0.411 µM [falling, single point] |  |
| O=C(Nc1ccc(Cl)cc1N1CCOCC1)C1CCCO1 (stereo unspecified) | -1.38 |  | 29.1 µM [falling, single point] |
| O=C(CSCc1cc(=O)n2ccsc2n1)Nc1ccc(F)cc1 | -15.3 |  | 6.51 µM [rising, partial curve, poor fit] |

Reformatted: 3 of the compounds above
SMILES | cell number change [%] | AC50 [1] | AC50 [2]
Cc1cccc(-n2c(O)c(C=NC3CCS(=O)(=O)C3)c3ccccc3c2=O)c1C (stereo unspecified) | 25.8 |  | 16.4 µM [rising, single point]
O=C(CCS(=O)(=O)c1cccc2nonc12)NC1CCCCCC1 | 13.4 |  | 4.61 µM [rising, partial curve]
COc1ccc(CCNC(=O)c2cccc(S(=O)(=O)NC(C)c3ccccc3)c2)cc1 (stereo unspecified) | 3.01 | 0.411 µM [falling, single point] | 

(continued)

| SMILES | cell number change [%] | AC50 [1] | AC50 [2] |
| --- | --- | --- | --- |
| CCOC(=O)N=Nc1c(O)n(Cc2ccccc2)c2ccccc12 | -7.9 |  | 0.461 µM [falling, single point] |
| CC(=O)Nc1cccc(NC(=O)c2cccc3cccnc23)c1 | 2.25 |  |  |
| COc1cc(-c2nc(C(=O)NC3CCCCC3)cc3c2[nH]c2ccccc23)cc(OC)c1OC |  |  | 5.17 µM [falling, full curve] |
| CCOC(=O)CNc1ncc([N+](=O)[O-])cc1C#N | 12.2 |  | 0.146 µM [rising, full curve, poor fit] |
| CCCSCCCNC(=O)CN1C(=O)COc2ccc(S(=O)(=O)N3CCCC3)cc21 | 6.57 |  | 29.1 µM [rising, single point] |
| COCCN(C(=O)c1cccc(OC)c1)c1nnc(-c2ccncc2)s1 | 20.6 |  | 18.4 µM [rising, single point] |
| COc1cc(C(=O)Nc2nc(-c3ccc(F)cc3)cs2)ccc1OCC(=O)N1CCOCC1 | -32.3 | 6.51 µM [rising, partial curve, poor fit] |  |
| COc1ccccc1N(C)S(=O)(=O)c1ccc(C(=O)OCC(=O)N2CCC2)cc1 | 22.8 | 0.00461 µM [falling, full curve, poor fit] |  |
| CCc1ccc(OCC(=O)Nc2ccc3c(c2)OCCO3)cc1 | 22.5 |  | 29.1 µM [rising, single point] |
| CC1CCN(CC(O)Cn2c3ccccc3c3ccccc32)CC1 (stereo unspecified) | 0.549 |  | 16.4 µM [rising, partial curve] |
| COc1cc(NC(=O)C2=CC(c3ccco3)=NS(=O)(=O)N2C)cc(OC)c1OC |  |  | 1.64 µM [rising, single point] |
| Cc1ccc(S(=O)(=O)N2CCN(CC3CC4C=CC3C4)CC2)cc1 (stereo unspecified) | 25.7 |  |  |
| CC12COC3(C(=O)Nc4ccc(F)cc4)CC1CCC32C (stereo unspecified) | -23.5 |  | 29.1 µM [falling, single point] |
| O=C1c2ccccc2NC(c2c(Cl)cccc2Cl)N1Cc1ccccc1 (stereo unspecified) | 6.83 |  | 29.1 µM [rising, single point] |
| CC1CC(C)CN(CC(=O)NC(c2ccccc2)c2ccccc2)C1 (stereo unspecified) | -34.4 | 29.1 µM [falling, single point] | 32.6 µM [falling, single point] |
| O=C(COC(=O)c1ccccc1C(=O)c1ccccc1)Nc1cccc([N+](=O)[O-])c1 | 18.4 |  | 0.146 µM [falling, full curve, poor fit] |
| CC(NC(=O)Nc1cccc(Cl)c1)C(c1cccs1)N1CCCC1 (stereo unspecified) | 12.8 |  | 16.4 µM [falling, single point] |
| COc1ccc(Cc2c(O)nc[nH]c2=O)cc1 | -43.1 | 18.4 µM [falling, single point] |  |
| COc1ccc(N(CC(=O)N/N=C/c2ccc(OC)cc2OC)S(=O)(=O)c2ccccc2)cc1 |  |  | 4.61 µM [rising, single point] |
| Cn1nc(CC(=O)Nc2ncc(Br)s2)c2ccccc2c1=O | -24.2 |  | 25.9 µM [falling, single point] |
| Cc1nc2ccccc2c2oc(C(=O)NCC3COc4ccccc4O3)cc12 (stereo unspecified) | -2.28 |  | 0.291 µM [rising, full curve, poor fit] |
| CCc1ccccc1S(=O)(=O)c1c(C)cc(C)nc1Cl | 3.52 |  | 0.517 µM [falling, single point] |

| SMILES | cell number change [%] | AC50 [1] | AC50 [2] |
| --- | --- | --- | --- |
| CN(c1ccccc1)S(=O)(=O)c1ccc(C(=O)NCc2ccccc2F)cc1 |  |  | 10.3 µM [falling, partial curve] |
| NC(=O)CSc1nc2sc(-c3ccccc3)cc2c(=O)n1N | -16.1 |  | 23.1 µM [falling, partial curve, poor fit] |
| CS(=O)(=O)c1ccccc1C(=O)Nc1cc(Cl)ccc1-n1cncn1 | 25.3 |  | 1.84 µM [rising, partial curve, poor fit] |
| CN(C)CCNc1c2c(c(C#N)c3nc4ccccc4n13)CCCC2 | -0.919 |  | 0.58 µM [falling, partial curve, poor fit] |
| CCCn1c(=O)[nH]c(=O)c2c1nc(-c1cccs1)n2CCOC |  |  | 1.46 µM [rising, single point] |
| Cc1cc(C(=O)OCC(=O)N2CCOCC2)ccc1[N+](=O)[O-] | -21.5 |  | 5.8 µM [rising, single point] |
| O=C(NCC(=O)N1CCN(C(=O)c2ccco2)CC1)c1ccccc1 | 12.7 |  |  |
| CCOC(=O)C(C)Sc1ncc(-c2ccc(Cl)cc2)cn1 (stereo unspecified) | 8.58 |  | 0.366 µM [rising, full curve] |
| CCC1=C(OC(=O)c2ccccc2)C(C)(C)C(c2ccccc2)OC1=O (stereo unspecified) | 16.1 |  | 0.651 µM [falling, full curve] |
| CCc1cc2c(CN3CCN(C)CC3)cc(=O)oc2cc1O | 0.357 |  | 2.06 µM [falling, partial curve] |
| N/C(=N\N=C/c1ccc(Br)cc1)N/N=C\c1ccc(Br)cc1 | -2 |  |  |
| CCOc1cc(C(=O)Nc2ccc3c(c2)OCO3)ccc1OCCOc1ccccc1Cl | 36.5 | 0.00517 µM [rising, full curve, poor fit] | 4.11 µM [rising, partial curve, poor fit] |
| Cn1c(=O)c2c(nc(N/N=C/c3ccc(OC(=O)c4ccco4)cc3)n2Cc2ccccc2Cl)n(C)c1=O | -22 | 1.84 µM [falling, partial curve, poor fit] |  |
| COc1ccc(CN2C(=O)C(CC(C)C)Nc3ncnc(N4CCN(c5ccccc5)CC4)c32)cc1 (stereo unspecified) | 14.9 |  | 16.4 µM [rising, partial curve, poor fit] |
| Cc1nc(SCC(=O)c2ccccc2)n[nH]1 | 5.62 | 4.61 µM [falling, partial curve, poor fit] | 18.4 µM [falling, partial curve] |
| Cc1cc(S(=O)(=O)N2CCOCC2)ccc1OCC(=O)Nc1ccccc1C(F)(F)F | 47.4 | 20.6 µM [rising, partial curve, poor fit] |  |
| O=C(CCCCl)N1CCc2[nH]c3ccccc3c2C1 | -2.2 |  | 0.00461 µM [rising, full curve, poor fit] |
| O=C(CCNS(=O)(=O)c1cccs1)N1CCN(c2ccc(F)cc2)CC1 | 14.3 |  |  |
| Cc1cccc(-c2noc(CCCC(=O)NC3CCCC3)n2)c1 | -7.89 |  | 0.631 µM [rising, full curve, poor fit] |
| O=C(O)C(Nc1nc(C(F)(F)F)nc2ccccc12)c1ccccc1 (stereo unspecified) | -5.25 |  |  |
| Cc1ccc(CN2CCC(c3cc(-c4cccs4)n[nH]3)CC2)cc1 | 52.6 | 5.8 µM [falling, single point] | 3.66 µM [falling, partial curve] |
